The target of assay [1] is BCL2L13(1–465)-GST (human) (UniProt Q9BXK5). The experiment in a line: microscopy-based bead assay; GST-tagged cargo receptors on beads, GFP-tagged FIP200-CTR or full-length FIP200 in solution, with the kinases TBK1, MBP-ULK1, CK2 or Src (Y530F) and ATP/MgCl2; both purified.
The target in assay [2] is NIX(1–182)-GST (human) (UniProt O60238). The assay is described as above.
In assay [3] the target is T1, FUNDC1(1–50)-GST (human) (UniProt Q8IVP5).
T1 sequence: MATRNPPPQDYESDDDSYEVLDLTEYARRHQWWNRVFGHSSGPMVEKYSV
The description is as above.

Chains of the proteins cited; added tags and fusions are not shown. Lines headed by an entry give the natural chain unless they say otherwise; changes in a name come on top. Residues count along the entry.
UniProt Q9BXK5, residues 1-465: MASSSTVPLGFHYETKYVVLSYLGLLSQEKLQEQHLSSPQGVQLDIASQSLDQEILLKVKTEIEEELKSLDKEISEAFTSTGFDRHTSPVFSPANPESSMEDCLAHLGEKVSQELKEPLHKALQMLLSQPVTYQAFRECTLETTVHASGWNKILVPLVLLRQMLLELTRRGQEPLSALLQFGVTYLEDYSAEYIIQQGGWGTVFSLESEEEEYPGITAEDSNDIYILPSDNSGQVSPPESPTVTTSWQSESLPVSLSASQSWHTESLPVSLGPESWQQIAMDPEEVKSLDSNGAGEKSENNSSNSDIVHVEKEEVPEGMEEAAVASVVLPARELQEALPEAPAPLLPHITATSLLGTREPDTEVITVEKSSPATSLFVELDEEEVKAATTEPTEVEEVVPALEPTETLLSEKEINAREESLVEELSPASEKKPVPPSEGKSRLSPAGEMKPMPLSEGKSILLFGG
UniProt O60238, residues 1-182: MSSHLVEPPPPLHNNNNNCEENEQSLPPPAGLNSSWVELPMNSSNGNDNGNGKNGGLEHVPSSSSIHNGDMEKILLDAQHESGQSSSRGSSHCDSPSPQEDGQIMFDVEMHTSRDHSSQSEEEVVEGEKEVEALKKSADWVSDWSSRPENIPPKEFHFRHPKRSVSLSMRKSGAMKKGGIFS
UniProt Q8TDY2: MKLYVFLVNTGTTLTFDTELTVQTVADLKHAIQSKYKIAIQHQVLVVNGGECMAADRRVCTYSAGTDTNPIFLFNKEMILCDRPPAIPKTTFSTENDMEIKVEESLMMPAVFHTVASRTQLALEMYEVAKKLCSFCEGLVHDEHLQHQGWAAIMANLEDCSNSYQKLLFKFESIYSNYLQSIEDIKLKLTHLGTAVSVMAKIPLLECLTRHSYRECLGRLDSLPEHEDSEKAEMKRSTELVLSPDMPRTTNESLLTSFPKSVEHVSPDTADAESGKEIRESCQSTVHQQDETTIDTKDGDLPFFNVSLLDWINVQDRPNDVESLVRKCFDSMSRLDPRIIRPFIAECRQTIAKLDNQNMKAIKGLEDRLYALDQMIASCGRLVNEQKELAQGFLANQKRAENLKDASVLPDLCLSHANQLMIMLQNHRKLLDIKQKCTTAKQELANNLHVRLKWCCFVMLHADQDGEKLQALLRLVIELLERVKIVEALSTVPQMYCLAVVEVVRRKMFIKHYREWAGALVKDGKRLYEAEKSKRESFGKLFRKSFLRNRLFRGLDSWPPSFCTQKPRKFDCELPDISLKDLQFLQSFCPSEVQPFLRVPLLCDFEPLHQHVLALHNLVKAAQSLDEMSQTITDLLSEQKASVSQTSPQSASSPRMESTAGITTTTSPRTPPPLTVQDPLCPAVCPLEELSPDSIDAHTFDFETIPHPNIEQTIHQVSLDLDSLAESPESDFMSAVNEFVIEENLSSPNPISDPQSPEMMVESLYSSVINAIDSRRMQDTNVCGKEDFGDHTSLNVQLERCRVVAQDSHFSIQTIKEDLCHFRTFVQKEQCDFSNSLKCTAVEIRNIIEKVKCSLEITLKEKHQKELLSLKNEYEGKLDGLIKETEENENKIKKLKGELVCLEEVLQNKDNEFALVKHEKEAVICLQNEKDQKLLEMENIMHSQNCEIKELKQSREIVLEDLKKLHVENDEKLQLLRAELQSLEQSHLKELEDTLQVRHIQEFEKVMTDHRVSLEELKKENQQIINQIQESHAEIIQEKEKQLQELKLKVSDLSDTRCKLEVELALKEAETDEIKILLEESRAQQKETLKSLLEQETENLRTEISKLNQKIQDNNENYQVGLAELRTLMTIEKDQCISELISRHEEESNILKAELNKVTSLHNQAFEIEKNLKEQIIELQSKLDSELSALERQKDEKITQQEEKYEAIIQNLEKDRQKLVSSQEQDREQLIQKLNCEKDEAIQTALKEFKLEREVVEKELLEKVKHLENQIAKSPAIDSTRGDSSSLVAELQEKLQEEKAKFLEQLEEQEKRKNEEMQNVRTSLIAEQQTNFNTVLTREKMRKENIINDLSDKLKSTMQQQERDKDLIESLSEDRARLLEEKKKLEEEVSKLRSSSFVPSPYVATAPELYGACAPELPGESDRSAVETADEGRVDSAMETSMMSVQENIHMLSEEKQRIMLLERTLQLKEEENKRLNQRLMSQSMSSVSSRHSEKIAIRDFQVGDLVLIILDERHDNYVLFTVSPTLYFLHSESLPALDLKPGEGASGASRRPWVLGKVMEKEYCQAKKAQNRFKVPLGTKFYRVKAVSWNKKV
UniProt Q6ZNE5: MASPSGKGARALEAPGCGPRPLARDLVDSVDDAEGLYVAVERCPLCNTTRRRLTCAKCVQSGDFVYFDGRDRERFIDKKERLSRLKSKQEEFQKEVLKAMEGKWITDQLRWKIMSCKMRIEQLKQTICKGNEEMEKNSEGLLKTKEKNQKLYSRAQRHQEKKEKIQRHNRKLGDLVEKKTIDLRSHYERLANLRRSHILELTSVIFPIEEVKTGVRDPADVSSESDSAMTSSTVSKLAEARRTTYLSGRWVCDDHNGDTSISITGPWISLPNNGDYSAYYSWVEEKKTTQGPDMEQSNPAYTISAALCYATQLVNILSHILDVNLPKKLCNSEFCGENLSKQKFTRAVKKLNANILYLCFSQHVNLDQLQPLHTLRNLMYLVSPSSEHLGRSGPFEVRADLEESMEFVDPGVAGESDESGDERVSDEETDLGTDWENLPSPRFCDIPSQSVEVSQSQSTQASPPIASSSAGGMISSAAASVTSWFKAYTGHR

The target of assay [4] is BCL2L13(1–465)-GST (human) (UniProt Q9BXK5). The assay is described as follows: microscopy-based bead assay; GST-tagged cargo receptors on beads, GFP-tagged FIP200-CTR or full-length FIP200 in solution, in the presence of lambda protein phosphatase; both purified.
Assay [5] deals with NIX(1–182)-GST (human) (UniProt O60238). The assay is described as above.
The target in assay [6] is T1, FUNDC1(1–50)-GST (human). The description is as above.
Assay [7] has as its target NIX(1–182)-GST (human) (UniProt O60238). The experiment in a line: microscopy-based bead assay; GST-tagged bait on Glutathione Sepharose 4B beads, GFP- or mCherry-tagged prey in solution, confocal imaging; both purified.

These are yes or no findings as the source states them, for the method shown. Some binding calls cover weakened binding; strength is not graded here. For some assays here: Sequences can lack the tags named with a protein.

Consider “FIP200-GFP (full-length FIP200) (from UniProt Q8TDY2 1-1594)”, for which the binding result is on record as “binds” in assay [1]; “no binding” with NIX(1–182)-GST (human) [2]; “binds” in the assay with FUNDC1(1–50)-GST (human) [3]; “binds” in assay [4]; “no binding” in the assay with NIX(1–182)-GST (human) [5]; “binds” with FUNDC1(1–50)-GST (human) [6]. In the assay with NIX(1–182)-GST (human) [7], the binding result was “no binding”.
With “mCherry-tagged PI3KC3–C1 complex (from UniProt Q6ZNE5 1-492; Q8NEB9 1-887; Q99570 1-1358; Q14457 1-450)”, the binding result in the assay with NIX(1–182)-GST (human) [7] is recorded as “no binding”.

Source of the values: publication PMC12339401.
